Results from the supplement of paper PMC10689618.
Counter-ions that a name gives are not always drawn. The list shows a part of the results. Many values rest on one well or one pass, so single values are uncertain.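 Primary human fetal astrocytes engulfed labelled rat cortical synaptosomes, measured as a red/green ratio corrected for calcein live-cell signal and scaled to the plate median. Toxicity meant calcein falling over 30%; decreased phagocytosis meant below 70% of median above 5 µM.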

Assays:
Human fetal astrocytes [1] = assay: loss of total cells relative to no-compound high-control median (toxicity); higher = more toxic (fewer cells); conditions: 24 h
Human fetal astrocytes [2] = assay: synaptosome phagocytosis (pHrodo/calcein intensity ratio) relative to plate median of data wells; higher = more phagocytosis; conditions: 24 h

| Compound | loss of total cells (Human fetal astrocytes [1]; 1.39 µM) | loss of total cells (Human fetal astrocytes [1]; 2.78 µM) | loss of total cells (Human fetal astrocytes [1]; 5.56 µM) | loss of total cells (Human fetal astrocytes [1]; 11.11 µM) | loss of total cells (Human fetal astrocytes [1]; 22.22 µM) | synaptosome phagocytosis (Human fetal astrocytes [2]; 1.39 µM) | synaptosome phagocytosis (Human fetal astrocytes [2]; 2.78 µM) | synaptosome phagocytosis (Human fetal astrocytes [2]; 5.56 µM) | synaptosome phagocytosis (Human fetal astrocytes [2]; 11.11 µM) | synaptosome phagocytosis (Human fetal astrocytes [2]; 22.22 µM) |
| --- | --- | --- | --- | --- | --- | --- | --- | --- | --- | --- |
| O=C1CCc2ccc(OCCCCN3CCN(c4cccc(Cl)c4Cl)CC3)cc2N1 | -15.6% | -12% | 35.1% | 14.8% | 14.4% | 54.8% | 50.8% | 83.9% | 82.2% | 101% |
| COCCc1ccc(OCC(O)CNC(C)C)cc1 (stereo not given) | -13.3% | -11.3% | 11.1% | -13.3% | 4% | 78.3% | 86.4% | 81% | 72.2% | 84.4% |
| CC(C)(N=NC(C)(C)C(=N)N)C(=N)N [2,2'-azobis[2-amidinopropane]dihydrochloride] | -9% | 5.4% | -5.1% | 3.4% | 28.1% | 115% | 91.6% | 103% | 82.8% | 123% |
| NC[C@@H]1O[C@H](O[C@H]2[C@@H](O)[C@H](O[C@@H]3[C@@H](O)[C@H](N)C[C@H](N)[C@H]3O[C@H]3O[C@H](CN)[C@@H](O)[C@H](O)[C@H]3N)O[C@@H]2CO)[C@H](N)[C@@H](O)[C@@H]1O | -10.4% | -15.9% | -14.6% | -9.5% | -13.1% | 78.4% | 124% | 81.8% | 108% | 110% |
| CC(=O)Oc1ccc(O)cc1 | -7.6% | -4.7% | 6.5% | -7.1% | 20.5% | 83.5% | 97.6% | 123% | 82.9% | 84% |
| CN(C)CCC[C@@]1(c2ccc(F)cc2)OCc2cc(C#N)ccc21 | -38.7% | -31.7% | -8.7% | 12.1% | 2.8% | 89.2% | 75.9% | 94% | 106% | 97.3% |
| Cc1c2oc3c(C)ccc(C(=O)N[C@@H]4C(=O)N[C@H](C(C)C)C(=O)N5CCC[C@H]5C(=O)N(C)CC(=O)N(C)[C@@H](C(C)C)C(=O)O[C@@H]4C)c3nc-2c(C(=O)N[C@@H]2C(=O)N[C@H](C(C)C)C(=O)N3CCC[C@H]3C(=O)N(C)CC(=O)N(C)[C@@H](C(C)C)C(=O)O[C@@H]2C)c(N)c1=O [actinomycin D] | -0.8% | 7% | 14.1% | -1.6% | 10.2% | 53.9% | 87.2% | 67.2% | 96.5% | 59.1% |
| CCOC(=O)c1c(C)cc(O)c(C=O)c1O | -15.6% | -12.6% | 25.2% | 49% | 5.6% | 91.6% | 51.2% | 94.8% | 72.4% | 83.7% |
| Cc1[nH]ccc2c1[nH]c1cc(=O)ccc12 | 4.9% | -12.6% | -5.1% | 7.4% | 5.2% | 119% | 85.9% | 135% | 120% | 102% |
